Library screen at single concentrations

The values are deposited in ChEMBL (CHEMBL3988442, “University of Dundee, Small-Polar-MMV Screening Library” (2021)).

Each number is a percent effect as filed. The controls that fix the scale are not given in the record; negative values are as filed. Compounds were drawn at random from those tested, without regard to their results.

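Whole-parasite assay of Trypanosoma brucei over 72 hours; the read-out is not stated. Tested at 30 µM. The record gives no direction; compounds that gave an IC50 in retests scored well above the rest, so higher reads as stronger inhibition. Values scatter widely below zero; nearly all retest evidence comes from the higher of the two concentrations used. About 64,000 compounds were tested under these conditions; 1.5% (about 940) showed 50% or more at least once.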

| SMILES | effect |
|---|---|
| `C=C(C)COc1ccc(C(=O)NCC2CC(CC)=NO2)cc1` (centres undefined) | 15.41 |
| `Cc1nn(C)c(C)c1C(C(=O)O)N1CCc2ccccc2C1` (centres undefined) | -15.11 |
| `N[C@@H](Cc1ccccc1)c1nnc(S(=O)(=O)Cc2ccccc2)o1` | -52.14 |
| `CC(C)CNC(=O)C1CC(=O)N(c2n[nH]c3ccccc23)C1` (centres undefined) | -10.78 |
| `CCc1nnc2n1CCN(Cc1nc(-c3ccoc3)no1)C2` | -19.02 |
| `[H][C@]12CCN(C(=O)c3ccncc3F)[C@@]1([H])CC[C@@H](COCC)O2` | -78.23 |
| `CCN(CCNS(=O)(=O)C1CCOCC1)C(=O)OC(C)(C)C` | -49.8 |
| `CC(NS(C)(=O)=O)C(=O)Nc1ccc2oc(C3CC3)nc2c1` (centres undefined) | -32.07 |
| `CC(C)(Oc1ccc(C(N)=O)cc1)C(=O)N(CCC#N)C1CC1` | 22.51 |
| `Cc1cc(C)n(CC2CN(CC(=O)NC3CCCCC3)CCO2)n1` (centres undefined) | 11.69 |
| `O=C(c1ccc(-c2ccc(O)nc2)s1)N1CCCCCC1` | -14.41 |
| `CC1CCCN(C(=O)c2cn(-c3ccc(C(F)(F)F)cn3)nn2)C1` (centres undefined) | -19.5 |
| `CCn1c(N)nc2cc(C(=O)NCCCc3ccccn3)cnc21` | -19.77 |
| `O=S(=O)(c1ccc(Cl)cc1)N1CCN(CCCn2ccnc2)CC1` | -48.33 |
| `CC(C(=O)N1CCc2sccc2C1)N1CCC(S(N)(=O)=O)CC1` (centres undefined) | 11.92 |
| `COCC(=O)N1CCc2ccccc2C12CCNCC2.Cl` | -40.62 |
| `N#CC1(C(=O)N2CCCN(Cc3cscn3)CC2)CCCCC1` | -2.702 |
| `Cc1cn[nH]c1C1COCCN1Cc1ccsc1` (centres undefined) | -15.96 |
| `CS(=O)(=O)c1nccn1Cc1ccc(F)cc1Cl` | -1.019 |
| `CC(C)(C)OC(=O)NCCC(=O)N(CCC#N)Cc1ccco1` | -12.03 |
| `CS(=O)(=O)CCOCCNc1ccc(C(F)(F)F)cc1C#N` | -20.73 |
| `O=C(O)c1cccnc1N1CCN(Cc2ccc(F)cc2)C(CCO)C1` (centres undefined) | -41.99 |
| `CCCc1nc(CN2CCCC2Cn2cncn2)no1` (centres undefined) | -9.916 |
| `Cn1cc(C(=O)Nc2cccc(-c3ccc4c(c3)CCO4)n2)ccc1=O` | -50.62 |
| `Cc1ccc(C(=O)N2CCCCC2CNC(N)=O)cc1F` (centres undefined) | 53.34 |
| `c1ccc(-c2cccc(N3CCC(NCCc4cscn4)CC3)c2)cc1` | 99.95 |
| `CN(C)c1ccc(C(=O)N2CCN(CC(C)(C)O)CC2)nn1` | 6.706 |
| `CCCc1nnc(NCCn2nc(C)c(Cl)c2C)o1` | 29.93 |
| `Cc1cc(C(C)(O)CNC(=O)CCOCC(C)C)c(C)o1` (centres undefined) | -10.44 |
| `CN(C)C(=O)c1ccc(-c2cccc3c2CCNC3)cc1` | -20.36 |
| `O=C(O)C(F)(F)F.[H][C@@]12OCCN(C(=O)COC)[C@@]1([H])CC[C@H]2OCc1cccnc1` | -4.678 |
| `Cc1nc2n(n1)CC(NCc1nc(C)c(C)o1)CC2` (centres undefined) | -13.53 |
| `Cc1cccc(-c2ccc(C(=O)NCCN3CCOCC3)c(=O)[nH]2)c1` | -5.066 |
| `CC(=O)NCC1CCN(C(=O)NCCc2ccc3c(c2)OCO3)CC1` | -59.87 |
| `Cc1nc(C)n(CC(=O)N2CCc3ncc(Cl)cc3C2)n1` | -71.75 |
| `Cc1cnc(C)c(N2CCCC(CC3CC3)(C(=O)O)C2)n1` (centres undefined) | -4.434 |
| `CSCC(C)(O)CNS(=O)(=O)c1ccc(F)cc1` (centres undefined) | 13.36 |
| `Cc1cc(-c2ccc(C(C)N3CCCCC3)cc2)cnc1N` (centres undefined) | 30.05 |
| `Cc1cc(N2CCC(c3ncc[nH]3)CC2)nc(N)n1` | 15.43 |
| `CC(=O)Nc1ccc(CNCc2ccc(CS(C)(=O)=O)cc2)cc1` | -5.116 |
| `c1nc(N2CCOC(Cn3cncn3)C2)c2sccc2n1` (centres undefined) | -82.29 |
| `CC(Cc1cccc(Cl)c1)NC(=O)NCc1ncnn1C` (centres undefined) | -17.45 |
| `COCCN1CCC2(CC1)CN(C(C)=O)c1ccc(C)cc12.O=C(O)C(F)(F)F` | -4.444 |
| `COCCN(C)C(=O)Cn1cccc(OC)c1=O` | -26.76 |
| `CS(=O)(=O)c1cccc(C(N)c2ccc(Cl)cc2)c1` (centres undefined) | -4.098 |
| `COCC[C@]1(O)CCN(C2CCN(C(=O)C3CCC3)CC2)C[C@H]1C` | -52.62 |
| `CCC1c2ccsc2CCN1C(=O)NCc1ccc(C)nc1` (centres undefined) | 7.979 |
| `COc1ccccc1N1CCN(c2nc(N)nc3[nH]cnc23)CC1` | -20.18 |
| `CCn1cc(NC(=O)NCc2ccc(CN3CCOCC3)cc2)cn1` | -6.098 |
| `O=C(O)C(F)(F)F.O=C(O)C(F)(F)F.O=C(O)C(F)(F)F.[H][C@@]12CCN(Cc3cnn(C)c3)[C@]1([H])CC[C@@H](C(=O)Nc1cccnc1C)O2` | -47.17 |
| `COc1ccccc1N1CCN(Cc2nc(C)c(C)o2)CC1` | -18.75 |
| `O=C(CCc1nccs1)N1CCC(C(=O)O)(c2ccccc2)CC1` | -40.4 |
| `CC(C)CN(CC(C)C)Cn1ncc2cn(-c3ccccc3)nc2c1=O` | -7.002 |
| `Cc1nc(CNC(=O)NCCc2ccc(N(C)C)cc2)cs1` | 7.102 |
| `CC(Cc1ccccn1)N(C)Cc1ccc2c(c1)CCO2` (centres undefined) | -21.78 |
| `[H][C@]12CC[C@]([H])(CN(CC(=O)N(C)C)C1)N(C(=O)Cc1ccccc1Cl)C2` | -30.59 |
| `Cc1c(Cl)cc(C(=O)NCCc2ncnn2C)cc1Cl` | -6.175 |
| `CN(C)C(=O)c1nnn(-c2ccc(Br)cc2)n1` | 2.948 |
| `N#Cc1cccc(CN2CCCC2Cn2cncn2)c1` (centres undefined) | -29.92 |
| `NC(=O)c1cccnc1N1CCN(c2ncnc3c2CCNC3)CC1` | 6.736 |
| `CNC(=O)c1ccc(CNC(=O)c2cc(C(C)C)n(C)n2)cc1` | -14.12 |
| `O=C(c1ccc[nH]1)N1Cc2nccn2CC(COc2cccnc2)C1` (centres undefined) | -7.923 |
| `[H][C@]12CC[C@]([H])(CN(Cc3ccccc3)C1)N(C(=O)CC(F)(F)F)C2` | 9.364 |
| `CC(C)n1cnnc1CCNCc1cn(CCC(N)=O)c2ccccc12` | -18.24 |
| `CCC(=O)N(CC)CCc1nccs1` | -10.48 |
| `Cc1ccc2c(c1C)OCC2NCc1ccc(C#N)cc1` (centres undefined) | -139.9 |
| `CN(Cc1ccccc1)C(=O)CN1CCCC1c1cnn(C)c1` (centres undefined) | -36.72 |
| `CCOC1COC2(CCN(S(=O)(=O)c3cccc(F)c3)CC2)C1` (centres undefined) | -22.6 |